Laboratory results published in PubChem BioAssay AID493014 (National Center for Advancing Translational Sciences (NCATS), 2011).
This is one part of the list. Further columns of the screen follow, without active or inactive calls. Most of these compounds were active or inconclusive in the main read-out, so they are no random draw. Words in brackets tell the shape of the fitted curve; partial curves, single points and poor fits give uncertain potencies.

Assay: qHTS Assay to Find Inhibitors of Chronic Active B-Cell Receptor Signaling
Settings: ABC-DLBCL IkBa-CBG/CBR reporter, luminescence ratio (green luciferase fused to IkBa over red control in TMD8 lymphoma cells), 4 h
Method in brief: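 Concentration-response series (up to 46 uM) were applied to TMD8 dual-reporter cells for 4 h at 37C with doxycycline. Green/red ratio, after filter-overlap correction, defined %Activity; red signal alone was normalised to basal cells and zero luminescence.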

[1] = measured here: CBR red luminescence, cell number
[2] = measured here: IkBa-CBG green luminescence

Row | SMILES | AC50 [1] | AC50 [2]
1 | CCS(=O)(=O)CCSc1nc2c(cc1C#N)CCCC2 | 23.1 µM [falling, single point] | 
2 | CCN1CCCC1CNC(=O)c1ccc2c(=O)n(CCOC)c(=O)[nH]c2c1 (stereo unspecified) | 3.55 µM [falling, partial curve, poor fit] | 
3 | O=C(CCl)Nc1ccccc1C(=O)Nc1ccc2c(c1)OCO2 | 12.6 µM [falling, single point] | 
4 | CC(C)(C)c1ccc(C(=O)N2CCN(CCNC(=O)C(=O)Nc3ccc(F)cc3)CC2)cc1 | 1.12 µM [falling, full curve] | 
5 | O=C(N/N=C/c1cc2c(cc1[N+](=O)[O-])OCO2)c1cccnc1 | 3.16 µM [rising, single point] | 
6 | COc1ccc(-c2csc(C)n2)cc1Br | 25.1 µM [rising, single point] | 
7 | CC1=C(C)/C(=N\OS(=O)(=O)c2ccccc2)C=CC1=O | 29.1 µM [falling, single point] | 
8 | CCCCCN(C(=O)CCC(=O)OCc1cc(C(C)=O)ccc1OC)c1c(N)n(CCCC)c(=O)[nH]c1=O | 16.4 µM [rising, single point] | 
9 | Cn1c(CNc2ccccc2O)nc2ccccc21 | 8.91 µM [falling, partial curve] | 
10 | COc1ccc(N(CC(=O)N/N=C/c2ccccc2OC)S(=O)(=O)c2ccccc2)cc1 | 6.31 µM [falling, single point] | 3.98 µM [rising, single point]
11 | O=C(Nc1nnc(SCc2cccc3ccccc23)s1)C1COc2ccccc2O1 (stereo unspecified) | 5.17 µM [rising, partial curve] | 
12 | C=CCn1c(=O)[nH]c2cc(C(=O)N3CCN(c4cccc(Cl)c4)CC3)ccc2c1=O | 10 µM [falling, partial curve, poor fit] | 
13 | O=C(c1cc(-c2ccccc2)nc2ccccc12)N1CCN(c2ccccc2O)CC1 | 22.4 µM [falling, single point] | 
14 | CN1/C(=C\C(=O)CSc2cccc[n+]2[O-])C(C)(C)c2ccccc21 | 6.31 µM [falling, single point] | 
15 | COc1ccc(CNCc2cc3c(C(C)(C)C)nn(-c4ccccc4)c3[nH]c2=O)cc1 | 29.1 µM [falling, single point] | 
16 | CCC1CCCCN1C(=O)CSc1nc2c(c(=O)n(C)c(=O)n2C)n1C (stereo unspecified) | 3.16 µM [falling, partial curve, poor fit] | 
17 | Cn1nc(C(=O)OCC(=O)c2ccccc2)c2ccccc2c1=O | 1.64 µM [rising, full curve, poor fit] | 
18 | O=C(Nc1ncn[nH]1)c1c(Cl)ccc(Cl)c1Cl | 29.1 µM [falling, single point] | 
19 | O=C(NCCO)c1cccc(S(=O)(=O)N2CCCCC2)c1 | 11.2 µM [rising, partial curve] | 
20 | COc1ccc(N2CC(C)(C)C2=O)cc1 | 35.5 µM [rising, single point] | 
21 | Cc1cc(C(=O)N/N=C/c2c(C)nn(-c3ccccc3)c2C)n[nH]1 | 0.355 µM [rising, full curve, poor fit] | 
22 | COc1ccc(C(=O)C(CN2CCCC2)c2ccccc2)cc1 (stereo unspecified) | 15.8 µM [falling, partial curve] | 

Row | SMILES | AC50 [1] | AC50 [2]
23 | COC(=O)c1sccc1NC(=O)Nc1cc(C)cc(C)c1 | 0.562 µM [falling, full curve] | 
24 | O=C(CSc1cc(Cl)ccc1Cl)NCC1CCCO1 (stereo unspecified) | 29.1 µM [rising, single point] | 
25 | COc1cc(NC(=O)c2cc(C)nc3ccccc23)cc(OC)c1OC | 3.16 µM [rising, partial curve, poor fit] | 
26 | O=C(NC(=S)Nc1ccccc1O)c1ccccc1Cl | 1.26 µM [falling, full curve, poor fit] | 
27 | CCOC(=O)C(CC)Sc1nc2c(cnn2-c2ccc(F)cc2)c(=O)[nH]1 (stereo unspecified) | 15.8 µM [rising, single point] | 
28 | CN(Cc1ccccn1)Cc1nc(-c2ccc(Cl)cc2)no1 | 35.5 µM [falling, single point] | 17.8 µM [rising, single point]
29 | O=[N+]([O-])c1ccc(CCn2ccnc2)cc1 | 0.447 µM [rising, full curve, poor fit] | 
30 | O=C(NCCc1cn2ccccc2n1)c1cc(COc2c(F)cccc2F)on1 | 1.12 µM [falling, full curve] | 
31 | COc1ccc(S(=O)(=O)N2CCCCCC2)cc1C(=O)Nc1ccc(C)cn1 | 29.1 µM [falling, single point] | 
32 | CCCS(=O)(=O)N1CCCC(C(=O)NC(C)c2ccc3c(c2)OCCO3)C1 (stereo unspecified) | 23.1 µM [rising, single point] | 
33 | CN(C)c1ccc(C(=S)NCc2ccco2)cc1 | 0.82 µM [falling, full curve] | 
34 | O=C(CNCc1cccs1)Nc1ccc(OC(F)(F)F)cc1 | 1 µM [rising, full curve] | 
35 | CC(C)(C)C1CCc2c(sc3ncn(N)c(=N)c23)C1 (stereo unspecified) | 7.08 µM [rising, full curve, poor fit] | 
36 | CCCc1c2ccccc2nc2ccccc12 | 0.00461 µM [falling, full curve, poor fit] | 25.9 µM [rising, partial curve, poor fit]
37 | COCCn1nnnc1CN1CCC(C)CC1 | 29.1 µM [rising, single point] | 
38 | COc1ccc(-c2cc(C(F)F)n3ncc(C(=O)N4CCN(C)CC4)c3n2)cc1 | 32.6 µM [rising, single point] | 
39 | CNc1snc(C)c1C(=O)OCC(=O)c1ccc(OC)c(F)c1 | 0.58 µM [rising, full curve, poor fit] | 
40 | Cc1ccc(S(=O)(=O)Nc2ccc(C(=O)Nc3cc(C)on3)cc2)cc1 | 0.164 µM [falling, full curve, poor fit] | 
41 | O=C(N=Nc1c(O)[nH]c2ccccc12)c1cccs1 | 1.41 µM [falling, full curve] | 
42 | CN(C)C(CNC(=O)Nc1cccc(Cl)c1)c1cccnc1 (stereo unspecified) | 13 µM [rising, single point] | 
43 | Cc1cc(SCc2ccc(Cl)c(Cl)c2)nc(=O)[nH]1 | 7.08 µM [rising, full curve, poor fit] | 
44 | COc1ccc(-c2cc3nc4c(c(=O)n3[nH]2)CCC4)cc1 | 4.11 µM [falling, full curve, poor fit] | 

13 of the compounds above, in markdown:

| Row | SMILES | AC50 [1] | AC50 [2] |
| --- | --- | --- | --- |
| 27 | CCOC(=O)C(CC)Sc1nc2c(cnn2-c2ccc(F)cc2)c(=O)[nH]1 (stereo unspecified) | 15.8 µM [rising, single point] |  |
| 28 | CN(Cc1ccccn1)Cc1nc(-c2ccc(Cl)cc2)no1 | 35.5 µM [falling, single point] | 17.8 µM [rising, single point] |
| 29 | O=[N+]([O-])c1ccc(CCn2ccnc2)cc1 | 0.447 µM [rising, full curve, poor fit] |  |
| 30 | O=C(NCCc1cn2ccccc2n1)c1cc(COc2c(F)cccc2F)on1 | 1.12 µM [falling, full curve] |  |
| 31 | COc1ccc(S(=O)(=O)N2CCCCCC2)cc1C(=O)Nc1ccc(C)cn1 | 29.1 µM [falling, single point] |  |
| 32 | CCCS(=O)(=O)N1CCCC(C(=O)NC(C)c2ccc3c(c2)OCCO3)C1 (stereo unspecified) | 23.1 µM [rising, single point] |  |
| 33 | CN(C)c1ccc(C(=S)NCc2ccco2)cc1 | 0.82 µM [falling, full curve] |  |
| 34 | O=C(CNCc1cccs1)Nc1ccc(OC(F)(F)F)cc1 | 1 µM [rising, full curve] |  |
| 35 | CC(C)(C)C1CCc2c(sc3ncn(N)c(=N)c23)C1 (stereo unspecified) | 7.08 µM [rising, full curve, poor fit] |  |
| 36 | CCCc1c2ccccc2nc2ccccc12 | 0.00461 µM [falling, full curve, poor fit] | 25.9 µM [rising, partial curve, poor fit] |
| 37 | COCCn1nnnc1CN1CCC(C)CC1 | 29.1 µM [rising, single point] |  |
| 38 | COc1ccc(-c2cc(C(F)F)n3ncc(C(=O)N4CCN(C)CC4)c3n2)cc1 | 32.6 µM [rising, single point] |  |
| 39 | CNc1snc(C)c1C(=O)OCC(=O)c1ccc(OC)c(F)c1 | 0.58 µM [rising, full curve, poor fit] |  |

Additional records.

Row | SMILES | AC50 [1] | AC50 [2]
45 | CCOC(=O)N1CCN(c2ccnc3cc(Cl)ccc23)CC1 | 15.8 µM [falling, single point] | 
46 | COc1ccc(/C=C2\SC(=S)N(CCC(=O)NC3=NCCS3)C2=O)cc1OC | 1.84 µM [falling, full curve] | 
47 | COC(=O)c1ccc(COC(=O)CNC(=O)CNC(=O)c2ccc(C)cc2)cc1 | 35.5 µM [rising, single point] | 
48 | COc1ccc(CN(C(=O)c2cc3ccccc3oc2=O)C2CCCCC2)cc1OC | 29.1 µM [falling, single point] | 
49 | COc1cc(/C=N/O)cc(Cl)c1OC | 1.03 µM [rising, full curve, poor fit] | 
50 | CCc1ccc(N=Nc2ccc(O)c3[nH]cnc23)cc1 | 1.16 µM [rising, full curve] | 25.9 µM [falling, single point]
51 | O=C(COC(=O)c1ccc(O)cc1O)Nc1cccc2ccccc12 | 3.66 µM [falling, partial curve] | 
52 | COc1ccc(/C=C\C(=O)c2c(O)ccc3c(C)cc(=O)oc23)cc1 | 23.1 µM [falling, single point] | 
53 | COc1ccc(-c2nc3scc(CCNS(=O)(=O)c4cccs4)n3n2)cc1 | 35.5 µM [falling, single point] | 
54 | CN1CCN(C(=O)c2cc(COc3c(F)cccc3F)on2)CC1c1ccccc1 (stereo unspecified) | 35.5 µM [falling, single point] | 17.8 µM [rising, single point]
55 | CO/N=C/c1ccc(N2CCN(C(=O)c3cccc(C(F)(F)F)c3)CC2)c([N+](=O)[O-])c1 | 20.6 µM [falling, partial curve, poor fit] | 
56 | CCn1ncc(C2=NOC(C(=O)NCc3ccc(Cl)cc3)C2)c1C (stereo unspecified) | 7.08 µM [rising, full curve] | 8.91 µM [falling, partial curve]
57 | Cc1cc(SCC(=O)N/N=C/c2ccc(C(=O)O)cc2)nc2ccccc12 | 7.08 µM [falling, partial curve, poor fit] | 
58 | COc1ccc(-c2nc(-c3ccccc3OC)no2)cc1OC | 14.1 µM [falling, partial curve, poor fit] | 
59 | CCOC(=O)/C(=N/Nc1ccc(C)cc1)S(=O)(=O)c1ccc(Cl)cc1 | 0.146 µM [falling, full curve, poor fit] | 
60 | COC(=O)c1ccc(/C(O)=C(\C#N)c2nc3ccccc3s2)cc1 | 0.562 µM [falling, full curve, poor fit] | 
61 | COc1cccc(N(CC(=O)O)S(=O)(=O)c2ccccc2)c1 | 0.184 µM [falling, full curve, poor fit] | 
62 | CCOc1ccc(NC(=S)Nc2ccc(OC)cc2)cc1 | 22.4 µM [rising, partial curve, poor fit] | 
63 | COc1cc(/C=N\Nc2nc3ccccc3o2)cc(OC)c1OC | 14.6 µM [falling, single point] | 3.26 µM [rising, full curve, poor fit]
64 | CCOC(=O)c1c(-c2ccccc2)csc1NC(=O)CSc1nnnn1C | 0.112 µM [falling, full curve, poor fit] | 
